This is one part of the list.

Amino acid sequences for entries named in this document (tags omitted). A change or cut given only in a name is not applied to a line headed by its entry.
UniProt Q9HAU5: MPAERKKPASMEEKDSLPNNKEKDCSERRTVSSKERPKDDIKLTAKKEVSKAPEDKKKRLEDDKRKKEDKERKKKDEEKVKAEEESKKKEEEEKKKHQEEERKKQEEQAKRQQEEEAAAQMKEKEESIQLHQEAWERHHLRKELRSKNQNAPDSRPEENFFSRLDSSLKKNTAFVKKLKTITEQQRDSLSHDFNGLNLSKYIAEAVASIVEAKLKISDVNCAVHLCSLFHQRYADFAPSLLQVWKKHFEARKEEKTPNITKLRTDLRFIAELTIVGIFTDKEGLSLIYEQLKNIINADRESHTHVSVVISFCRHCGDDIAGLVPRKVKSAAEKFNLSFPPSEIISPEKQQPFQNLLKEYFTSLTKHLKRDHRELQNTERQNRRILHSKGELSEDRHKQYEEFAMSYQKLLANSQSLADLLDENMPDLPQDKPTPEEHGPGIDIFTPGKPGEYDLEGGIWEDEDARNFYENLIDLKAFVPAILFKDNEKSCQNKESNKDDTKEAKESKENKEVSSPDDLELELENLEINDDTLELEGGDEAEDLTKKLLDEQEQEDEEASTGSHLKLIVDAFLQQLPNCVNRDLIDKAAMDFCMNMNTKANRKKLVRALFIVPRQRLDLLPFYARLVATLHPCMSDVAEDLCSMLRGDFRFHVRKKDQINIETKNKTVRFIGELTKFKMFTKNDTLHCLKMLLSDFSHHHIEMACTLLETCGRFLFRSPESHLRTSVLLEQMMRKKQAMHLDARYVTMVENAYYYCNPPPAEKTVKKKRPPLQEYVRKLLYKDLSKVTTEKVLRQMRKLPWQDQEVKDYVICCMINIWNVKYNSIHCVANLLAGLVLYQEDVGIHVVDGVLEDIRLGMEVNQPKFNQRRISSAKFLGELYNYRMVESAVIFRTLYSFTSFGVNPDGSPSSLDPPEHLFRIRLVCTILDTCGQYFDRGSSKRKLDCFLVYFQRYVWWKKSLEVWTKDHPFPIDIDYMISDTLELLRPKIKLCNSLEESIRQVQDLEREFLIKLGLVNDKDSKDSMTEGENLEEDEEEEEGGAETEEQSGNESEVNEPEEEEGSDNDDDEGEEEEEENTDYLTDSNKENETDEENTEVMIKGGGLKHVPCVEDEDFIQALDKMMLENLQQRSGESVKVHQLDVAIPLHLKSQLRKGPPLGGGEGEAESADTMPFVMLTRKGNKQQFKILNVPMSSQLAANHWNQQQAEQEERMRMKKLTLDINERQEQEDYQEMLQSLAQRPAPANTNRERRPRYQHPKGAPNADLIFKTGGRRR
UniProt Q93009, whole entry, looked up: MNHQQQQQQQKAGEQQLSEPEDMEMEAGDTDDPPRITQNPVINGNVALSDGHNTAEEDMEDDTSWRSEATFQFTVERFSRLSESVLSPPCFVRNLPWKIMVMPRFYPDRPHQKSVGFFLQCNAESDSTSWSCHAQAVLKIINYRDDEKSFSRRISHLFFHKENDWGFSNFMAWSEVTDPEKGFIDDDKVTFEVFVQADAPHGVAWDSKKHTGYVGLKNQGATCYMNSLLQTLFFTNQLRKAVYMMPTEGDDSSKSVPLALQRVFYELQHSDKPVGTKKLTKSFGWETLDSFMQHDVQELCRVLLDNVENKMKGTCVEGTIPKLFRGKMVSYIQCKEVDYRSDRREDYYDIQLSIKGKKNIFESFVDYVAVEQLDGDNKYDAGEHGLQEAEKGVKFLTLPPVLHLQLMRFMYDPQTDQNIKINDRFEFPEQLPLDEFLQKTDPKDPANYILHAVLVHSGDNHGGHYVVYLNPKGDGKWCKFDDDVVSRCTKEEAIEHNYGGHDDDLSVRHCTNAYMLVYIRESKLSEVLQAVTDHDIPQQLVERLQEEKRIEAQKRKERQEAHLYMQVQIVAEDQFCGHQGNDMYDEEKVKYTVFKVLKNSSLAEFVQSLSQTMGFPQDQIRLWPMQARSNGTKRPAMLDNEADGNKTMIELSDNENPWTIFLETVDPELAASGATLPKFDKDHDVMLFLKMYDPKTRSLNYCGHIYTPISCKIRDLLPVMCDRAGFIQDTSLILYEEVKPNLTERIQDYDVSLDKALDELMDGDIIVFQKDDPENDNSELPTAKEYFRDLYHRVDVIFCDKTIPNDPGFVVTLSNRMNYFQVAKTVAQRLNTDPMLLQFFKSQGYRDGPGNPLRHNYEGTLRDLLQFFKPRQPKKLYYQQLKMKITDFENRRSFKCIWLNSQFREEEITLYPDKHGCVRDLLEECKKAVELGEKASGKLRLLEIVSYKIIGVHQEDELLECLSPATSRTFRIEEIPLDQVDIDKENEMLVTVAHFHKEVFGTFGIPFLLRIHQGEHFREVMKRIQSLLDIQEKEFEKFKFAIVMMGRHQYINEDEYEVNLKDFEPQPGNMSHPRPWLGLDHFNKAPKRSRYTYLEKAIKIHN
UniProt Q53GS9: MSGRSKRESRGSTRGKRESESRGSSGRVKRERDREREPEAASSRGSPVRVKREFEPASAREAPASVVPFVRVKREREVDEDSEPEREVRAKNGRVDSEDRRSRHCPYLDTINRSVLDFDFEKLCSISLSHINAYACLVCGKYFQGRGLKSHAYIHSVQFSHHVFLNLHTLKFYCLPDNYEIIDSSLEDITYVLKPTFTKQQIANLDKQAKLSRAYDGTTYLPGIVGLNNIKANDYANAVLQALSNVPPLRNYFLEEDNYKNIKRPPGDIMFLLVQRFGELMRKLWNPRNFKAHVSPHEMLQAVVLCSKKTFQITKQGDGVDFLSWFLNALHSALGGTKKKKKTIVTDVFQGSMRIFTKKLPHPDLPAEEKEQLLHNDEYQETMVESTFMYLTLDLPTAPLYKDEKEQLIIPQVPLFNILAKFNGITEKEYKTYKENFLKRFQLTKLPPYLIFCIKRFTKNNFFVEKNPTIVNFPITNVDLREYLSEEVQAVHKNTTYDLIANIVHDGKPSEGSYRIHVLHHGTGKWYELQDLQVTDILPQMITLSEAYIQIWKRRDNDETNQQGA
UniProt Q969T4: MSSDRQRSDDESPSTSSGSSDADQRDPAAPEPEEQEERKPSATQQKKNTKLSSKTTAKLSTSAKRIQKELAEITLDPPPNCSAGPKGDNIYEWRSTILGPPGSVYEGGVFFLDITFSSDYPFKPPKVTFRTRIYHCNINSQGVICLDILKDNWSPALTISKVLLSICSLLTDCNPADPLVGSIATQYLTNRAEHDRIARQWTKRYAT
UniProt Q8IWR1: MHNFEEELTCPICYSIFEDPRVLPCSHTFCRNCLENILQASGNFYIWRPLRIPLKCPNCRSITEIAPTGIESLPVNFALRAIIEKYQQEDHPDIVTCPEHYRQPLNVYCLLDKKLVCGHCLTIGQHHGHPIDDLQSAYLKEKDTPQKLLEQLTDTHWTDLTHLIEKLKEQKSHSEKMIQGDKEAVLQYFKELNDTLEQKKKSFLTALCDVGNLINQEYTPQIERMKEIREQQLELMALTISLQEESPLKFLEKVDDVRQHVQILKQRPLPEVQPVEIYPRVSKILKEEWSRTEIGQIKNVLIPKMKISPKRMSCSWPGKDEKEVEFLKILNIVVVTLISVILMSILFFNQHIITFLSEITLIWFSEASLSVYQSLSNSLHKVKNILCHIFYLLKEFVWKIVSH
UniProt O43715: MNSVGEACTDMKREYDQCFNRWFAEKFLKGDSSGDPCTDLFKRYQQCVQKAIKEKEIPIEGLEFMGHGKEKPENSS
UniProt Q96QT4: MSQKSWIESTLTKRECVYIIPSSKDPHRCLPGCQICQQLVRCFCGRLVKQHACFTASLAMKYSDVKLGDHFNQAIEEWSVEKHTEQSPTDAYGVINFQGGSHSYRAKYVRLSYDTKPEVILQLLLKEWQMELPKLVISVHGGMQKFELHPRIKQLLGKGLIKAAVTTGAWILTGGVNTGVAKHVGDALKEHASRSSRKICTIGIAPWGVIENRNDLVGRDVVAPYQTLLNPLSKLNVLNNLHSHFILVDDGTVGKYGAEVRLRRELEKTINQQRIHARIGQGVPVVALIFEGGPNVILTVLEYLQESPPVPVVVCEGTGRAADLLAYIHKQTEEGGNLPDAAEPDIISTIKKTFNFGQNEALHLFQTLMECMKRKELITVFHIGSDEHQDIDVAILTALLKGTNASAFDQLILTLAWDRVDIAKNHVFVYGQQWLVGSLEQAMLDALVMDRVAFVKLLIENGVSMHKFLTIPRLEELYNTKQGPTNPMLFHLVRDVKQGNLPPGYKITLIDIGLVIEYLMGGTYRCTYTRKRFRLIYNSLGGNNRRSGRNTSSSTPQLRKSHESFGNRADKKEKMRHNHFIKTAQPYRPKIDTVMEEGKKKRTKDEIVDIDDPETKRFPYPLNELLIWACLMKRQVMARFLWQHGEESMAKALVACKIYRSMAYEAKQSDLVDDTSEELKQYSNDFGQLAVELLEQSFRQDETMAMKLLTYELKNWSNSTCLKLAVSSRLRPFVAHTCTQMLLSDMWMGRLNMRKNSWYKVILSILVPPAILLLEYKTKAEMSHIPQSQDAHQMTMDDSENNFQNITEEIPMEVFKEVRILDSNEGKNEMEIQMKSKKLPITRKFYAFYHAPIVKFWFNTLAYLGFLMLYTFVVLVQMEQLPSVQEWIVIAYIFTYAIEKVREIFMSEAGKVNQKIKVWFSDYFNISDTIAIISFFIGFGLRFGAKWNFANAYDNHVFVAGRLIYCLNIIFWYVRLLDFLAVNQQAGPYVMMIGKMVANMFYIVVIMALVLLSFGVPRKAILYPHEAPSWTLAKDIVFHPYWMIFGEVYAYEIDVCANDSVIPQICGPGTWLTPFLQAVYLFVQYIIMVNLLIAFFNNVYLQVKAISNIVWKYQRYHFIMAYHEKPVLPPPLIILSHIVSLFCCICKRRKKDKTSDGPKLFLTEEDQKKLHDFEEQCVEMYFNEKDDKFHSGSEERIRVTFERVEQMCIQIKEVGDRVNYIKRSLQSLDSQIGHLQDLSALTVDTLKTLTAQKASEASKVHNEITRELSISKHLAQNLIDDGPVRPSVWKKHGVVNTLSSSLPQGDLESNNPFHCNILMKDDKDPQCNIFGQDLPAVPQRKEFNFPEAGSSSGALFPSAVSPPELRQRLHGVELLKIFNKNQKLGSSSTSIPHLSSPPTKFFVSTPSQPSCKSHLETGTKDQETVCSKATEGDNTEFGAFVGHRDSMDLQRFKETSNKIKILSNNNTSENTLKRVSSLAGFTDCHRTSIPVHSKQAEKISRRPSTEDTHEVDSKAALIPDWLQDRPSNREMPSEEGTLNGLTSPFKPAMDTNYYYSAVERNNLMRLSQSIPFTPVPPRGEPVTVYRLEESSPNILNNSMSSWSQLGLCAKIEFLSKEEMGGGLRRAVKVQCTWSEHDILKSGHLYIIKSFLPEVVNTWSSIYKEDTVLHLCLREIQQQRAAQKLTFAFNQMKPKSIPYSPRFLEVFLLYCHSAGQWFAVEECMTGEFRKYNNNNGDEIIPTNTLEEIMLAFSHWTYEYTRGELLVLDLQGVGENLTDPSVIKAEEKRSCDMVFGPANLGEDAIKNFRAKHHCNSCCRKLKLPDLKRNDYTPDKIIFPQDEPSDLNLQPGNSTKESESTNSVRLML
UniProt P47985: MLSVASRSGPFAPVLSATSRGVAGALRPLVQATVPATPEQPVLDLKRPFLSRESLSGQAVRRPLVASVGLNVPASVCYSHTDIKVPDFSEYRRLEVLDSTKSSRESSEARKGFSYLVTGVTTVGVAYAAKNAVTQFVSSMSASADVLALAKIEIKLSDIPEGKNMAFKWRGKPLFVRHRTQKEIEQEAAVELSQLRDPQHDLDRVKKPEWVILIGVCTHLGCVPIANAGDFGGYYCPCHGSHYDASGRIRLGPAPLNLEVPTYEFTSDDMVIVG
UniProt Q12999: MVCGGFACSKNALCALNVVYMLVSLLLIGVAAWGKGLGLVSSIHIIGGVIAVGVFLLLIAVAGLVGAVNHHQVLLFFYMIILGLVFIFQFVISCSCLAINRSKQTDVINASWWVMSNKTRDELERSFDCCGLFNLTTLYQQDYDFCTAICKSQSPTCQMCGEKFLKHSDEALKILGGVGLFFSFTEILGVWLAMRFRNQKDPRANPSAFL

Compound in this experiment: COc1ccc(Cn2ccc3ccc(C(=O)NO)cc32)cc1
Description: dose-dependent thermal stabilisation call (2D-TPP, DLPTP, 10% FDR) (binary (1 = stabilised)); higher = stabilised by the compound. The conditions noted are these: system: HL-60 intact cells; concentration range 0.04-10 µM.
Turning to UPF2 (UniProt Q9HAU5), the “dose-dependent thermal stabilisation call” value is inactive: 0.

Take USP7 (UniProt Q93009): the “dose-dependent thermal stabilisation call” value was inactive: 0.

Regarding USP39 (UniProt Q53GS9), the “dose-dependent thermal stabilisation call” value was inactive: 0.

For the target UBE2E3 (UniProt Q969T4), the “dose-dependent thermal stabilisation call” value is inactive: 0.

For the target TRIM59 (UniProt Q8IWR1), the “dose-dependent thermal stabilisation call” value is inactive: 0.

As to TRIAP1 (UniProt O43715), the “dose-dependent thermal stabilisation call” value is inactive: 0.

For TRPM7 (UniProt Q96QT4), the “dose-dependent thermal stabilisation call” value is inactive: 0.

On to UQCRFS1 (UniProt P47985), for which the “dose-dependent thermal stabilisation call” value was inactive: 0.

TSPAN31 (UniProt Q12999): the “dose-dependent thermal stabilisation call” value is inactive: 0.
